This is one part of the list.

The target in this experiment is T1, OsSMF1 (Oryza sativa, UniProt Q6ZLB0 1-436).
T1 sequence: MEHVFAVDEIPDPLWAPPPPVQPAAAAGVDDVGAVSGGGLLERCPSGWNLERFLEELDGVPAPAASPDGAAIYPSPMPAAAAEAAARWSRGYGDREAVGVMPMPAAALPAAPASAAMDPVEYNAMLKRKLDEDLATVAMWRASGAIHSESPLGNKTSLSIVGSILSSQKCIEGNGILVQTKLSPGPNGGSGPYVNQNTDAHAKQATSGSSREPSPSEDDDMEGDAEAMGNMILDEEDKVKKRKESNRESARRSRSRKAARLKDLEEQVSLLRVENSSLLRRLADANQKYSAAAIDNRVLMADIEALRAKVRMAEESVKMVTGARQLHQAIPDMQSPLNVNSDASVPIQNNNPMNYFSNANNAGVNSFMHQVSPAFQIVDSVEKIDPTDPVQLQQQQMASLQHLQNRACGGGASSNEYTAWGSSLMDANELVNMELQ
Put plainly: protein-binding microarray (RPBM); PBS, 2% BSA, 51.3 ng/ul salmon testes DNA, 50 uM zinc acetate, 200 nM TF, 25 C, 1 h; high values mean tight binding. To be noted: protein: recombinant; tags: N-terminal polyhistidine and DsRed monomer fusion (pET32a); chain copies: 2; label: CyDye5-dUTP incorporated in the synthesized complementary strand; 3' TTTTT single-stranded linker to array surface; dsDNA, one strand shown. The method in brief: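 Polyhistidine-tagged DsRed fusions of transcription factors, joined at the N-terminus, were expressed in E. coli BL21-CodonPlus and isolated on Ni–NTA. They were incubated at 200 nM for 1 h at 25 °C on a custom Agilent array, double-stranded and BSA-blocked, in PBS with 2% BSA, salmon testes DNA and 50 µM zinc acetate. The binding signal is per-feature fluorescence intensity (arbitrary units) read on an Axon 4000B scanner after washing.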
As for “CGCCCAACCGGCCAACCCACCGACGCGGCAGGCAGCGAGTCGGAGTCACCTAGTGCAG”, the binding signal was 3610 fluorescence intensity (a.u.).

“AGGATTGAAAACCCACTCTTCCGCTTCTCCTCCCAATCTCCGGAGTCACCTAGTGCAG”: the binding signal was 14100 fluorescence intensity (a.u.).

On to “TCTAAGCTTTGAATTGCAGTGACATGAATATAGCTTTAGTCGGAGTCACCTAGTGCAG”, for which the binding signal is 3440 fluorescence intensity (a.u.).

On to “ATCTAAACGGCGACGTGGCAGCGGGTCGCGTGAGCGTGACCGGAGTCACCTAGTGCAG”, for which the binding signal is 4270 fluorescence intensity (a.u.).

For “CCATTCTCCATGTACCCTCCCATACCATACCATACTCCTCCGGAGTCACCTAGTGCAG”, the binding signal is 3620 fluorescence intensity (a.u.).

Regarding “TCCTCGCGCCGCGCCAGCGCTGACGTAGCCGTAGGTCGCCCGGAGTCACCTAGTGCAG”, the binding signal was 11700 fluorescence intensity (a.u.).

“AGTAAAAGGAGAACTGAAGAAGAAGGCATCGCGGACGCCCCGGAGTCACCTAGTGCAG”: the binding signal is 8600 fluorescence intensity (a.u.).

Take “TCGGCTTCACTTGGAACAAATCGTCATCATCCTCGCCGCCCGGAGTCACCTAGTGCAG”: the binding signal is 5550 fluorescence intensity (a.u.).

Turning to “TCCATCAGTATCACGCGTTCGTCCTACGATTTCGTCATGACGGAGTCACCTAGTGCAG”, the binding signal was 24800 fluorescence intensity (a.u.).

Consider “AAACAAATCGAGCTCCTTTGGTTAATTTGTACCACGTCAGCGGAGTCACCTAGTGCAG”, for which the binding signal was 19200 fluorescence intensity (a.u.).

As for “TCGTTGGATTAGCTCACTAGCCGTTGGGGACACGTGGCACCGGAGTCACCTAGTGCAG”, the binding signal was 14300 fluorescence intensity (a.u.).

On to “GCTATTGACTGTATCTAGTACTATTTCAAATTGTCAACGACGGAGTCACCTAGTGCAG”, for which the binding signal was 3200 fluorescence intensity (a.u.).

As for “TTCCCCACGATAAACACGTACGCGCGCGCCTACTCGCGGCCGGAGTCACCTAGTGCAG”, the binding signal was 3950 fluorescence intensity (a.u.).

For “GACGATGGCGTCTGCAGCGTCCGCGGGTGGATCCGTTAGCCGGAGTCACCTAGTGCAG”, the binding signal is 3860 fluorescence intensity (a.u.).

In the case of “CGCACTGCGTCGCGCCACGCCGCGTGGGCCCGCCGCCGACCGGAGTCACCTAGTGCAG”, the binding signal was 4500 fluorescence intensity (a.u.).

As for “GTTGTTTTGTCCCATGCAGGCTGCAGGCTGACCTGATCAACGGAGTCACCTAGTGCAG”, the binding signal was 3240 fluorescence intensity (a.u.).

As to “AAAAGAGTCTAATCTATGCAGCAGCCGCATCAGCTATAGCCGGAGTCACCTAGTGCAG”, the binding signal was 3350 fluorescence intensity (a.u.).

On to “ATAAGTGGTAGTCAGTGATGATGGTCACCTTTGACGGGTCCGGAGTCACCTAGTGCAG”, for which the binding signal is 4170 fluorescence intensity (a.u.).

With “AATAACCACGTATATATAACTTCTAACCCTAGTTAACAACCGGAGTCACCTAGTGCAG”, the binding signal is 3310 fluorescence intensity (a.u.).

Take “CCATCTCATTCAGTTTTATTCCGCGCGCCTCCTAAATCGCCGGAGTCACCTAGTGCAG”: the binding signal was 15900 fluorescence intensity (a.u.).

Take “GAACGGCGCCAGGACATGCTCCACGTCGTCGTTGATCTTTCGGAGTCACCTAGTGCAG”: the binding signal was 6040 fluorescence intensity (a.u.).

Regarding “AGGGGAAGTCAGTGAGGGCGAAGCACACGTGGCGCTCTCCCGGAGTCACCTAGTGCAG”, the binding signal was 16600 fluorescence intensity (a.u.).

Take “CGGATATACAAACACACATTTGAAGTATTAAACGTAGTCTCGGAGTCACCTAGTGCAG”: the binding signal was 3400 fluorescence intensity (a.u.).

Take “ACAGCCAAAATCTTTCGAAAGATGTATAGGTACTCGCAAACGGAGTCACCTAGTGCAG”: the binding signal was 3710 fluorescence intensity (a.u.).

In the case of “CTAACCTCTTGGTGCGTCCAATCCATCGTGTATCGGTTCCCGGAGTCACCTAGTGCAG”, the binding signal is 4150 fluorescence intensity (a.u.).

Regarding “ACAGTATCAATGATGTTGGCGTCATCCTTCTTGTCTACCGCGGAGTCACCTAGTGCAG”, the binding signal is 6460 fluorescence intensity (a.u.).

For “CTTCTTCACCAAATCCATGGCGATCTTACACAAACCTGGACGGAGTCACCTAGTGCAG”, the binding signal was 3220 fluorescence intensity (a.u.).

“CCTAGCCCTCCTCCTACTCCTCTGCAATGGTAGATTGCGCCGGAGTCACCTAGTGCAG”: the binding signal is 47700 fluorescence intensity (a.u.).

As to “ACGTTGGCGCTGATACGTTATAGCTTAGCGCCAATGTCTACGGAGTCACCTAGTGCAG”, the binding signal is 27700 fluorescence intensity (a.u.).

For “TTGCGAGAGAATGAGTCAGTCAGGATTGATCAGCAAATCACGGAGTCACCTAGTGCAG”, the binding signal was 4750 fluorescence intensity (a.u.).

Consider “TTTTCTCCATAAGCCTAGTGACACGTGTCAGCATAATAAACGGAGTCACCTAGTGCAG”, for which the binding signal is 13600 fluorescence intensity (a.u.).

On to “ACATTGGTAGCTTGAACATAAATATATTGATTTTAGTTTGCGGAGTCACCTAGTGCAG”, for which the binding signal is 5600 fluorescence intensity (a.u.).

As to “TGTACTGATGCATTTGCTGGCCTCACACGTCTCCACCTGCCGGAGTCACCTAGTGCAG”, the binding signal is 3480 fluorescence intensity (a.u.).

As for “ATGTGTTCTACTATGTATGTATGTGAAAATGCAGTGAAGTCGGAGTCACCTAGTGCAG”, the binding signal was 4050 fluorescence intensity (a.u.).

For the sequence “GTCGTTGCTGTATATCCACGACCACGTCAAAACTGATCCCCGGAGTCACCTAGTGCAG”, the binding signal is 5180 fluorescence intensity (a.u.).

For the sequence “TGGTCGTGATGCGTCATGTGAACTGCTGACTACCTTCTTCCGGAGTCACCTAGTGCAG”, the binding signal is 9930 fluorescence intensity (a.u.).

With “TCGTATGTGTCATTGAAGCCCCACATATCATTGTCACGTACGGAGTCACCTAGTGCAG”, the binding signal is 4020 fluorescence intensity (a.u.).

As for “TTAACCACAGTGCCGTTCTCTAGCCACCATCTCAGCAGCACGGAGTCACCTAGTGCAG”, the binding signal is 3270 fluorescence intensity (a.u.).

Regarding “ACTTTACTTTCCGATCTGATGCGTGTTACATACTTGGCATCGGAGTCACCTAGTGCAG”, the binding signal was 3460 fluorescence intensity (a.u.).

Regarding “CGTGCTGACGTGCAGGTTCGCCTTTTCTCCATCCGCCTCTCGGAGTCACCTAGTGCAG”, the binding signal was 18200 fluorescence intensity (a.u.).

For the sequence “TTCTCCATGTGGGCGCCCATCACCGTGAGCGCCAGTCTCTCGGAGTCACCTAGTGCAG”, the binding signal is 3170 fluorescence intensity (a.u.).

As to “TCGATTCCAGCTGTGGCACCCATAGAGAAATGAGCCCGTCCGGAGTCACCTAGTGCAG”, the binding signal was 56300 fluorescence intensity (a.u.).

For the origin of these results see paper PMC7819943, “Rice protein-binding microarrays: a tool to detect cis-acting elements near promoter regions in rice”.
